# Data as given in patent publication USRE48599E1, “Compositions comprising TLIA-Ig fusion protein for the regulation of T regulatory cells, and methods for their use” (University of Miami, priority 2013, dated 2021).
# At least one compound was matched to its structure with a doubt left.
# Tested on: OT-I, OT-II and CD4+FoxP3+ Treg cells
# Assay: Combination of TL1A-Ig and rapamycin in ova/alum immunized mice with OT-I/OT-II transfer
# Type: in vivo, Wild-type mice
# Details: treatment that included rapamycin 75 μg/kg 6-day course
compound,measurement,setting,value
CO[C@H]1C[C@@H]2CC[C@@H](C)[C@@](O)(O2)C(=O)C(=O)N2CCCC[C@H]2C(=O)O[C@H]([C@H](C)C[C@@H]2CC[C@@H](O)[C@H](OC)C2)CC(=O)[C@H](C)/C=C(\C)[C@@H](O)[C@@H](OC)C(=O)[C@H](C)C[C@H](C)/C=C/C=C/C=C/1C [rapamycin],overall frequency of CD8+ (OT-I) cells,FIG. 18,markedly reduced
same,overall frequency of CD4+ (OT-II) cells,FIG. 19,markedly reduced
